No constants are given. Whether binding was seen depends on the method and setting. Some results given as binding are weak or reduced against the parent protein; the word gives no strength.
Molecular target: MEF2A (human) (UniProt Q02078)
Test: SPR; Biacore T200, 25 °C; MEF2A immobilised on CM5 chip by amine coupling; class IIa HDACs injected at 40-1.25 nM (2-fold dilutions, in duplicate), 30 uL/min, contact 90 s, dissociation 300 s; HBS-P (10 mM Hepes pH 7.4, 150 mM NaCl, 0.05% P20) for HDAC7 and HDAC9, HBS-P with 1% (v/v) glycerol for HDAC4 and HDAC5; 1:1 kinetic binding model; three independent experiments; both purified

Sequences of proteins named here, by UniProt entry; tags and fusion partners are left off.
UniProt Q9UKV0: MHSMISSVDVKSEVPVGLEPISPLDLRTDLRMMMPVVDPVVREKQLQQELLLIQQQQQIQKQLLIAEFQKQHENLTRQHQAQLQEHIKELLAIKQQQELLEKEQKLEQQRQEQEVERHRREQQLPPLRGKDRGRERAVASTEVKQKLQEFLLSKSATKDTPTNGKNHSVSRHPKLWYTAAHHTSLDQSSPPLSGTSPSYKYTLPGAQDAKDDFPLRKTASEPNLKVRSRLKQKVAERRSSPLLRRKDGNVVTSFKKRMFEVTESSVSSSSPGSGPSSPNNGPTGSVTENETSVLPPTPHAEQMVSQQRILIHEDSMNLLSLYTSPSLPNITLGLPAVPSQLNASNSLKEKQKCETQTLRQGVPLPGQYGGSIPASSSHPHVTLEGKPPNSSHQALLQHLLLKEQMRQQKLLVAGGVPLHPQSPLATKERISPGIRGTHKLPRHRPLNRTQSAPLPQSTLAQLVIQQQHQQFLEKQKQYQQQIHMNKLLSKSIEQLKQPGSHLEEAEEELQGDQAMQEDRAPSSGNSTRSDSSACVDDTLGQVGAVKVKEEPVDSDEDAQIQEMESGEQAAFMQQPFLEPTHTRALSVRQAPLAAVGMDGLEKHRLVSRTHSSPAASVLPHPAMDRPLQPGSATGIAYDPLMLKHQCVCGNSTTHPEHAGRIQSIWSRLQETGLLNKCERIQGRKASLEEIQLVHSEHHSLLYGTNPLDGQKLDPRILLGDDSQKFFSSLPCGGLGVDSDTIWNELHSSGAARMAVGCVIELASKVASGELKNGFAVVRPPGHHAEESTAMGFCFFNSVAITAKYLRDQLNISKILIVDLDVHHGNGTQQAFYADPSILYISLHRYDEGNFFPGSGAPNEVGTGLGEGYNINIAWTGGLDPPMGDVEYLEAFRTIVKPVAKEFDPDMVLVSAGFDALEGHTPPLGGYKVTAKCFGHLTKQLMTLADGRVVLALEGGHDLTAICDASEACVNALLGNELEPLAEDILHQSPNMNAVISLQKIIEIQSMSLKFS

HDAC9 (from UniProt Q9UKV0 1-1011) (enzyme)
binding: binds

From PMC12199305
